The values that follow come from doi:10.1101/2025.09.22.677877.

Protein sequences, listed by entry. Tags and fused reporters are not part of them. Lines headed by an entry give the natural chain unless they say otherwise; changes in a name come on top. Residues count along the entry.
UniProt Q84TH9, whole entry: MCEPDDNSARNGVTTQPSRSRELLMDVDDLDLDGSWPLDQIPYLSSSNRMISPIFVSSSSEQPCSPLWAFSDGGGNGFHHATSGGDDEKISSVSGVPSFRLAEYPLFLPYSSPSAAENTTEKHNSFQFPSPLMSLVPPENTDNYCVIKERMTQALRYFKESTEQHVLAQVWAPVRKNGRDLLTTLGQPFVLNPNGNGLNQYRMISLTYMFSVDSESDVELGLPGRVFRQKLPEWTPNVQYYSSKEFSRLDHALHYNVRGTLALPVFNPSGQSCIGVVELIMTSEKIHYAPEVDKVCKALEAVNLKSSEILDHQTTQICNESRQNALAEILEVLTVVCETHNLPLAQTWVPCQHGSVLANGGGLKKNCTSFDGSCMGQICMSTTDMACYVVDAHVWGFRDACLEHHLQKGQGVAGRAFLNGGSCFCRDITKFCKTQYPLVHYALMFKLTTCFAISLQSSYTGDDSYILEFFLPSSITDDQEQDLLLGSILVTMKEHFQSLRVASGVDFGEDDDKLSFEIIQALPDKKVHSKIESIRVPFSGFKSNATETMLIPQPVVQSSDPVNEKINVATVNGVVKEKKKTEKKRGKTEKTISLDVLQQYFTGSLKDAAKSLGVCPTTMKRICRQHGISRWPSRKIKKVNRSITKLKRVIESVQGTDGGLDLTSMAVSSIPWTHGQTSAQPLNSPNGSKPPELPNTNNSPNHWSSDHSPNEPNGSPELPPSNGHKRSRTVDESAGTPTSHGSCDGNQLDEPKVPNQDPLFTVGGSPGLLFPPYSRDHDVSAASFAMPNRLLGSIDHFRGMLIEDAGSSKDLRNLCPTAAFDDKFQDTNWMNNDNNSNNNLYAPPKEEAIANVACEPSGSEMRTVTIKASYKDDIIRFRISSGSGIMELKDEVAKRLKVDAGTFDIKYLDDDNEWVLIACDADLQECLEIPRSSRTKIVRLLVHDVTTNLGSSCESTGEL
UniProt Q84TH9, 1-863, stated change not applied: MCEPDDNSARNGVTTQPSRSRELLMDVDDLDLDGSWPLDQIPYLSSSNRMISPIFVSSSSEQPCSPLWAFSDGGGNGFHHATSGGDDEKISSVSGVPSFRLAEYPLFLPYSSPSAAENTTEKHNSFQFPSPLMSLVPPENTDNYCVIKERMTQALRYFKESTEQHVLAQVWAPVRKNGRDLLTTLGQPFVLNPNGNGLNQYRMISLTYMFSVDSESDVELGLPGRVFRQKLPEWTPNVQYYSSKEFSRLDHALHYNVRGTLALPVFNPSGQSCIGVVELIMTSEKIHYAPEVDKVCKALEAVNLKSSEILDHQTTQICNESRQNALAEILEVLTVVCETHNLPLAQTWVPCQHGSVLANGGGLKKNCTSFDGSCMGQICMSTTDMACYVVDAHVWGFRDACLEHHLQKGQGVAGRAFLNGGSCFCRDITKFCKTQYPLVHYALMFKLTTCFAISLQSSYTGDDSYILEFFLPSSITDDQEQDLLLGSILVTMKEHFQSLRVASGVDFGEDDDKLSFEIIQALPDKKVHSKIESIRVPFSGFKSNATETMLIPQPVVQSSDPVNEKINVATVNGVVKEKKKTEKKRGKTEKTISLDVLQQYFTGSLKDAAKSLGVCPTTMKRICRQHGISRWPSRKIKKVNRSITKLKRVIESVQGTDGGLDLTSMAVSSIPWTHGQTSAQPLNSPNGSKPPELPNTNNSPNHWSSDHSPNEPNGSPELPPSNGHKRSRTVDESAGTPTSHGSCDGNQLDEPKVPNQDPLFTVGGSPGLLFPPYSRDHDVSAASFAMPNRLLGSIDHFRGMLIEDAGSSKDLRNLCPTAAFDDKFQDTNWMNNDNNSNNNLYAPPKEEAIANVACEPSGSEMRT
UniProt F4ID16, whole entry: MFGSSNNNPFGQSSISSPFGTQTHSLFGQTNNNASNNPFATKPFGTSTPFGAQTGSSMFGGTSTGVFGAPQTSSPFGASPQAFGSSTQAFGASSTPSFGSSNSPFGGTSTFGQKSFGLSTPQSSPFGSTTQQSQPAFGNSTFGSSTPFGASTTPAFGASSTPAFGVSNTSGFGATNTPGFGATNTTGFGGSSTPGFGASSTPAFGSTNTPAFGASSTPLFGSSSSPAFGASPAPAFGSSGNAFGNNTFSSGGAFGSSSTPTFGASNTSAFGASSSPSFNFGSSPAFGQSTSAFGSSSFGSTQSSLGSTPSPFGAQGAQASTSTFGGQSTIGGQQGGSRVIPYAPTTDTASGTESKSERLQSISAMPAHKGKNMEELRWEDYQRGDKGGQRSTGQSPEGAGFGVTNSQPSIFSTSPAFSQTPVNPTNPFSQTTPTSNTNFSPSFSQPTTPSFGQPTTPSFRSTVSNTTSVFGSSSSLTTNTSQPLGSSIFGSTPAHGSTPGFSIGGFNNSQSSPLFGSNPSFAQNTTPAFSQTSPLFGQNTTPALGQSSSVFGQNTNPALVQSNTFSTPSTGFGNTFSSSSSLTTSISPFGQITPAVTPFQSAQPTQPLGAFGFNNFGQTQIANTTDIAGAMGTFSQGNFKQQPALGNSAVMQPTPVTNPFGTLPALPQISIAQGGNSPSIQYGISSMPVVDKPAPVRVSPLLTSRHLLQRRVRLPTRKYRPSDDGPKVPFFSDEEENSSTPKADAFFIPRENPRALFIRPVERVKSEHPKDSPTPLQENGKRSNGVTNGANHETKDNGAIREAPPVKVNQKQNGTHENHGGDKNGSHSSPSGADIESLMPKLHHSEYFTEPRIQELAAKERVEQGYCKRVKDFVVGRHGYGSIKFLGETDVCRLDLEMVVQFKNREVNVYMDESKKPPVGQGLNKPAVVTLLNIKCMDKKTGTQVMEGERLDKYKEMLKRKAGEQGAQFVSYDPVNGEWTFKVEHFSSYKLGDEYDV

Read-outs that look alike come from different tables or passages of the source. These are yes or no findings as the source states them, for the method shown. For part of these data: In cells and extracts the contact can be indirect. Some entries that bind do so weakly or less than the wild type. For part of these data: Tags and fused reporters may be left off the sequences shown.

Test [1] addresses CYFP-NLP7 (Arabidopsis thaliana (Columbia accession)) (UniProt Q84TH9). The experiment in a line: split reporter.
Test [2] addresses full-length NLP7 protein (bait of the Hybrigenics yeast two-hybrid screen) (Arabidopsis thaliana) (UniProt Q84TH9). The experiment in a line: two-hybrid.
The target of test [3] is NLP7 fused with the binding domain (BD) (Arabidopsis thaliana (Columbia accession)) (UniProt Q84TH9). The experiment in a line: two-hybrid.
Test [4] addresses NLP7ΔPB1 (NLP7 without PB1 domain) (Arabidopsis thaliana (Columbia accession)) (UniProt Q84TH9). The experiment in a line: split reporter.
The target of test [5] is NLP7ΔGAF (NLP7 without the predicted GAF domain) (Arabidopsis thaliana (Columbia accession)) (UniProt Q84TH9). Kind of test: split reporter.
Test [6] concerns the target CYFP-NLP7 (Arabidopsis thaliana (Columbia accession)) (UniProt Q84TH9). Kind of test: split reporter. The source holds these as a separate data set.

“NUP98B (split-YFP fusion for BiFC) (from UniProt F4ID16 1-997)”: the binding entry in test [1] is given as “binds”.

B1: NUP98A (found in the Hybrigenics yeast two-hybrid screen) (protein, UniProt Q8RY25 1-1041)
chain: MFGSSNPFGQSSGTSPFGSQSLFGQTSNTSSNNPFAPATPFGTSAPFAAQSGSSIFGSTSTGVFGAPQTSSPFASTPTFGASSSPAFGNSTPAFGASPASSPFGGSSGFGQKPLGFSTPQSNPFGNSTQQSQPAFGNTSFGSSTPFGATNTPAFGAPSTPSFGATSTPSFGASSTPAFGATNTPAFGASNSPSFGATNTPAFGASPTPAFGSTGTTFGNTGFGSGGAFGASNTPAFGASGTPAFGASGTPAFGASSTPAFGASSTPAFGASSTPAFGGSSTPSFGASNTSSFSFGSSPAFGQSTSAFGSSAFGSTPSPFGGAQASTPTFGGSGFGQSTFGGQQGGSRAVPYAPTVEADTGTGTQPAGKLESISAMPAYKEKNYEELRWEDYQRGDKGGPLPAGQSPGNAGFGISPSQPNPFSPSPAFGQTSANPTNPFSSSTSTNPFAPQTPTIASSSFGTATSNFGSSPFGVTSSSNLFGSGSSTTTSVFGSSSAFGTTTPSPLFGSSSTPGFGSSSSIFGSAPGQGATPAFGNSQPSTLFNSTPSTGQTGSAFGQTGSAFGQFGQSSAPAFGQNSIFNKPSTGFGNMFSSSSTLTTSSSSPFGQTMPAGVTPFQSAQPGQASNGFGFNNFGQNQAANTTGNAGGLGIFGQGNFGQSPAPLNSVVLQPVAVTNPFGTLPAMPQISINQGGNSPSIQYGISSMPVVDKPAPVRISSLLTSRHLLHRRVRLPARKYRPGENGPKVPFFTDDEESSSTPKADALFIPRENPRALVIRPVQQWSSRDKSILPKEQRPTAPLHDNGKSPDMATDAANHDRNGNGELGATGERIHTSVNANQKPNGTTRSDQASEKERPYKTLSGHRAGEAAIVYEHGADIEALMPKLRQSDYFTEPRIQELAAKERADPGYCRRVRDFVVGRHGYGSIKFMGETDVRRLDLESLVQFNTREVIVYMDESKKPAVGQGLNKPAEVTLLNIKCIDKKTGKQFTEGERVEKYKMMLKKKAEAQGAEFVSFDPVKGEWKFRVEHFSSYKLGDEDEEDGV
In the case of B1, in test [2], the binding entry was “binds”.

B2: NUP98A fused with the DNA activation domain (AD) (protein, UniProt Q8RY25 1-1041)
chain: MFGSSNPFGQSSGTSPFGSQSLFGQTSNTSSNNPFAPATPFGTSAPFAAQSGSSIFGSTSTGVFGAPQTSSPFASTPTFGASSSPAFGNSTPAFGASPASSPFGGSSGFGQKPLGFSTPQSNPFGNSTQQSQPAFGNTSFGSSTPFGATNTPAFGAPSTPSFGATSTPSFGASSTPAFGATNTPAFGASNSPSFGATNTPAFGASPTPAFGSTGTTFGNTGFGSGGAFGASNTPAFGASGTPAFGASGTPAFGASSTPAFGASSTPAFGASSTPAFGGSSTPSFGASNTSSFSFGSSPAFGQSTSAFGSSAFGSTPSPFGGAQASTPTFGGSGFGQSTFGGQQGGSRAVPYAPTVEADTGTGTQPAGKLESISAMPAYKEKNYEELRWEDYQRGDKGGPLPAGQSPGNAGFGISPSQPNPFSPSPAFGQTSANPTNPFSSSTSTNPFAPQTPTIASSSFGTATSNFGSSPFGVTSSSNLFGSGSSTTTSVFGSSSAFGTTTPSPLFGSSSTPGFGSSSSIFGSAPGQGATPAFGNSQPSTLFNSTPSTGQTGSAFGQTGSAFGQFGQSSAPAFGQNSIFNKPSTGFGNMFSSSSTLTTSSSSPFGQTMPAGVTPFQSAQPGQASNGFGFNNFGQNQAANTTGNAGGLGIFGQGNFGQSPAPLNSVVLQPVAVTNPFGTLPAMPQISINQGGNSPSIQYGISSMPVVDKPAPVRISSLLTSRHLLHRRVRLPARKYRPGENGPKVPFFTDDEESSSTPKADALFIPRENPRALVIRPVQQWSSRDKSILPKEQRPTAPLHDNGKSPDMATDAANHDRNGNGELGATGERIHTSVNANQKPNGTTRSDQASEKERPYKTLSGHRAGEAAIVYEHGADIEALMPKLRQSDYFTEPRIQELAAKERADPGYCRRVRDFVVGRHGYGSIKFMGETDVRRLDLESLVQFNTREVIVYMDESKKPAVGQGLNKPAEVTLLNIKCIDKKTGKQFTEGERVEKYKMMLKKKAEAQGAEFVSFDPVKGEWKFRVEHFSSYKLGDEDEEDGV
Take B2: the binding entry in test [3] was “binds”.

B3: NYFP-NUP98A (protein, UniProt Q8RY25 1-1041)
chain: MFGSSNPFGQSSGTSPFGSQSLFGQTSNTSSNNPFAPATPFGTSAPFAAQSGSSIFGSTSTGVFGAPQTSSPFASTPTFGASSSPAFGNSTPAFGASPASSPFGGSSGFGQKPLGFSTPQSNPFGNSTQQSQPAFGNTSFGSSTPFGATNTPAFGAPSTPSFGATSTPSFGASSTPAFGATNTPAFGASNSPSFGATNTPAFGASPTPAFGSTGTTFGNTGFGSGGAFGASNTPAFGASGTPAFGASGTPAFGASSTPAFGASSTPAFGASSTPAFGGSSTPSFGASNTSSFSFGSSPAFGQSTSAFGSSAFGSTPSPFGGAQASTPTFGGSGFGQSTFGGQQGGSRAVPYAPTVEADTGTGTQPAGKLESISAMPAYKEKNYEELRWEDYQRGDKGGPLPAGQSPGNAGFGISPSQPNPFSPSPAFGQTSANPTNPFSSSTSTNPFAPQTPTIASSSFGTATSNFGSSPFGVTSSSNLFGSGSSTTTSVFGSSSAFGTTTPSPLFGSSSTPGFGSSSSIFGSAPGQGATPAFGNSQPSTLFNSTPSTGQTGSAFGQTGSAFGQFGQSSAPAFGQNSIFNKPSTGFGNMFSSSSTLTTSSSSPFGQTMPAGVTPFQSAQPGQASNGFGFNNFGQNQAANTTGNAGGLGIFGQGNFGQSPAPLNSVVLQPVAVTNPFGTLPAMPQISINQGGNSPSIQYGISSMPVVDKPAPVRISSLLTSRHLLHRRVRLPARKYRPGENGPKVPFFTDDEESSSTPKADALFIPRENPRALVIRPVQQWSSRDKSILPKEQRPTAPLHDNGKSPDMATDAANHDRNGNGELGATGERIHTSVNANQKPNGTTRSDQASEKERPYKTLSGHRAGEAAIVYEHGADIEALMPKLRQSDYFTEPRIQELAAKERADPGYCRRVRDFVVGRHGYGSIKFMGETDVRRLDLESLVQFNTREVIVYMDESKKPAVGQGLNKPAEVTLLNIKCIDKKTGKQFTEGERVEKYKMMLKKKAEAQGAEFVSFDPVKGEWKFRVEHFSSYKLGDEDEEDGV
In the case of B3, the binding result in test [4], in test [5] and in test [6] was “binds” throughout.
